Results from PubChem BioAssay AID2685 (National Center for Advancing Translational Sciences (NCATS), 2010).
The other results are listed elsewhere or left out. Shown are side measurements of this screen, not its main read-out; they come without a call. Compounds called inactive in the main read-out are mostly missing here. Potencies come from curve fits of mixed quality, noted in brackets.

Assay: qHTS Assay for Lipid Storage Modulators in Drosophila S3 Cells;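 for cell number change: cells counted by Cell Tracker Red CMTPX staining in the red channel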
Conditions: BODIPY lipid droplet fluorescence, 18-24 h; for cell number change: measured here: cell count max response, cells fed with added oleic acid
Method in brief: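 Drosophila S3 cells loaded with oleic acid (400 uM, as added) and compounds at several concentrations; lipid droplets imaged by 488-nm laser-scanning cytometry, 500–530 nm intensity and object ratio to cell channel. Percent activity normalized to 20 uM Triacsin C.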

[1] = measured here: lipid fluorescence (Fed channel) AC50, cells fed with added oleic acid
[2] = measured here: cell number channel AC50, cells fed with added oleic acid

SMILES | AC50 [1] | cell number change [%] | AC50 [2]
O=C(CSc1ccc2nnc(CCNC(=O)c3ccccc3)n2n1)Nc1ccc(F)cc1F | 1.84 µM [falling, partial curve, poor fit] | – | –
CCOC(=O)C1=C(COC(=O)COc2ccccc2OCC)NC(=O)NC1C (stereo not drawn) | – | -77 | –
COc1cc2c(cc1OC)CN(C1CCCN(Cc3cc(Cl)ccc3O)C1)CC2 (stereo not drawn) | – | -6.04 | 3.66 µM [falling, single point]
CC1CC(C)CN(C(=O)c2ccc(S(=O)(=O)N3CCCCC3)cc2)C1 (stereo not drawn) | 8.2 µM [falling, partial curve, poor fit] | -2.89 | –
COc1ccc(NC(=O)c2oc3ccccc3c2C)c(OC)c1 | 1.46 µM [rising, full curve] | – | 1.3 µM [rising, full curve]
CCOC(=O)c1c(N/N=C/c2ccncc2)n[nH]c1C | 2.31 µM [rising, partial curve, poor fit] | 35.4 | 2.06 µM [rising, partial curve]
O=C(CC1SC(=Nc2ccccc2)N(CCc2ccccn2)C1=O)Nc1ccc(F)cc1 (stereo not drawn) | 29.1 µM [rising, single point] | 13.5 | –
O=C(c1cc(Br)c(Br)s1)N1CCOCC1 | 0.58 µM [falling, single point] | -3.97 | –
O=C(O)c1ccc2c(c1)C(=O)N(c1cccc3ccccc13)C2=O | – | 40.5 | 32.6 µM [rising, single point]
O=[N+]([O-])c1cc(S(=O)(=O)N2CCCC2)ccc1N/N=C/c1ccccn1 | 29.1 µM [rising, single point] | 2.01 | –
CC(C)c1ccccc1NC(=S)NCCCn1ccnc1 | 0.58 µM [rising, single point] | – | –
COc1ccc(NC(=O)c2oc3ccccc3c2NC(=O)C2CC2)cc1 | 3.26 µM [falling, partial curve] | 16.5 | –
C/C(=N\Nc1ccccc1)c1c(O)cc(C)oc1=O | – | 50.1 | 1.84 µM [rising, partial curve]
COc1ccc(CSc2ncnc3sccc23)cc1F | – | 2.23 | –
C=C1[C@@H](OC(C)=O)CC[C@]2(C)[C@@H]1C[C@@H]1C[C@H](OC(C)=O)C(C)=C([C@@H](OC(C)=O)[C@@H]2OC(C)=O)C1(C)C | 4.11 µM [rising, full curve, poor fit] | 15 | –
O=S(=O)(Nc1ccc(C(F)(F)F)cc1)c1cnc[nH]1 | – | -5.81 | –
ClCc1nc2ccccc2c2ccccc12 | – | 21.7 | –
COc1cccc(-c2cc(C(=O)N3CCN(S(=O)(=O)c4ccccc4)CC3)[nH]n2)c1 | 3.66 µM [falling, single point] | -8.36 | –
Cc1cc(C)n2nc(C(=O)OCC(=O)Nc3cc(Cl)ccc3C)nc2n1 | 16.4 µM [rising, partial curve, poor fit] | 1.93 | –
COc1ccc(Cl)cc1NC(=O)COC(=O)/C=C/c1c(C)nn(C2CCS(=O)(=O)C2)c1Cl (stereo not drawn) | – | -27.3 | –
CC(=O)c1ccc(N(C)C)c2c(N(C)C)cccc12 | – | 4.59 | –

Grouped by structure: those above containing an aryl thioether with sulfur outside any ring
SMILES | AC50 [1] | cell number change [%] | AC50 [2]
O=C(CSc1ccc2nnc(CCNC(=O)c3ccccc3)n2n1)Nc1ccc(F)cc1F | 1.84 µM [falling, partial curve, poor fit] | – | –
COc1ccc(CSc2ncnc3sccc23)cc1F | – | 2.23 | –

(more compounds)

SMILES | AC50 [1] | cell number change [%] | AC50 [2]
CCc1ccccc1NC(=O)c1sc2nc(C)cc(C)c2c1N | 29.1 µM [falling, single point] | 1.35 | –
NS(=O)(=O)c1ccc(CCNC(=O)CN2CCCCC2)cc1 | – | -5.65 | –
Brc1ccc(-c2nn3c(-c4ccccn4)nnc3s2)o1 | 0.58 µM [rising, single point] | – | –
C=CCNC(=S)N1CCC(C(=O)c2ccc(Cl)cc2)CC1 | – | -16.9 | –
O=C(CCc1nnc(C2CCCCC2)o1)N1CCN(Cc2ccccc2)CC1 | – | 11.5 | 3.66 µM [falling, single point]
Cc1ccccc1OCCNC(=O)/C=C/c1ccc([N+](=O)[O-])cc1 | 29.1 µM [rising, single point] | 13.8 | –
Cc1n[nH]c(C)c1CN(C)C(=O)C1CCC(=O)N(CC2CCCCC2)C1 (stereo not drawn) | 29.1 µM [rising, partial curve, poor fit] | 12.4 | –
CC1CCCCC1NC(=O)C1CCN(C(=O)c2sccc2-n2cccc2)CC1 (stereo not drawn) | 23.1 µM [rising, single point] | 23.3 | –
COc1cc(/C=C/c2ccc3cccc(OC)c3n2)c(OC(C)=O)c([N+](=O)[O-])c1 | 3.66 µM [falling, full curve, poor fit] | -79.7 | 20.6 µM [falling, single point]
O=C(CNC(=O)C1COc2ccccc2O1)Nc1cc(Cl)ccc1Cl (stereo not drawn) | – | -25 | –
CCN(CC)S(=O)(=O)c1cccc(-c2nnc(SCC(=O)NC3CCCCCCC3)n2N)c1 | 11.6 µM [rising, partial curve] | 11.3 | –
CC(C)c1[nH]nc2c1C(c1ccc(OC(=O)c3ccco3)cc1)C(C#N)=C(N)O2 (stereo not drawn) | 6.51 µM [rising, single point] | -6.58 | –
CCOc1ccc(CN(C)C(=O)Cc2c[nH]c3ccccc23)cc1 | 5.8 µM [rising, partial curve, poor fit] | 18.4 | –
Cc1cccc(NC(=O)COc2cccc3c2CCN(C)C3=O)c1C | 18.4 µM [rising, single point] | 34.5 | 20.6 µM [rising, single point]
CC1=CC2=NC(=O)/C(=C\c3cccn3CCOc3ccccc3)C(=N)N2O1 | 3.66 µM [rising, single point] | -7.04 | –
CC1c2cc3c(cc2CCN1C(=O)c1ccc(Br)cc1)OCCCO3 (stereo not drawn) | 0.58 µM [rising, single point] | -12 | –
COc1ccc(Cl)cc1C(=O)CSc1nnnn1C1CCCCC1 | 4.61 µM [falling, single point] | – | –
Cc1ccccc1OCC(=O)NCC(c1cccs1)N1CCOCC1 (stereo not drawn) | – | 53.5 | 1.84 µM [rising, partial curve]
CCOc1ccccc1NC(=S)NC(=O)CCCOc1ccc(Cl)cc1Cl | 0.651 µM [rising, full curve, poor fit] | 14.9 | –
O=C(O)CN1C(=O)SC(Nc2ccccc2C(=O)O)C1=O (stereo not drawn) | 0.366 µM [falling, full curve] | -21.8 | 0.0651 µM [falling, full curve, poor fit]
